Positions count from the first letter of the chain named. These are yes or no findings as the source states them, for the method shown. Binding seen in cells or lysates may run through a third protein. Some binding calls cover weakened binding; strength is not graded here. Where a sequence is shown, tags or fusion partners need not be part of it.

By UniProt entry, the sequences of proteins in these tests, tags left out.
UniProt Q01628: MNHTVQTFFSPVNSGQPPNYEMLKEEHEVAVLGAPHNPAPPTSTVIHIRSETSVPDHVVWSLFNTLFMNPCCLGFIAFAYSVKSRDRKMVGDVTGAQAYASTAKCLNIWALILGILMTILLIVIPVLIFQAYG

The target in assay [1] is T1, 2XFlag-ZMPSTE24 (wild type) (human) (UniProt O75844).
T1 sequence: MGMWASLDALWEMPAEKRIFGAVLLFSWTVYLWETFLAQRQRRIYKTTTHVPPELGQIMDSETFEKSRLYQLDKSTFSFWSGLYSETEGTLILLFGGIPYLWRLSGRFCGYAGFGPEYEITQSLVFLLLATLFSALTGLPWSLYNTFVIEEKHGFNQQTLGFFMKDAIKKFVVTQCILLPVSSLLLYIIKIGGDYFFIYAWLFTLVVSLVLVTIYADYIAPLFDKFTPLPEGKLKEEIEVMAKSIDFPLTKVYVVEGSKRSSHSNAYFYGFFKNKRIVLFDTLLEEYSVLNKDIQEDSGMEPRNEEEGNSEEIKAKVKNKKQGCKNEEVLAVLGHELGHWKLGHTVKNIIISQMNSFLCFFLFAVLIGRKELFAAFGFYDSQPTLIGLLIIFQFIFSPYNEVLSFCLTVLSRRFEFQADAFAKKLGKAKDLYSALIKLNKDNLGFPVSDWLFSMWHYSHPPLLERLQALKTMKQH
Briefly: co-IP; HEK293T cotransfected with Myc-IFITM3 and Flag-ZMPSTE24, Flag-ZMPSTE24-E336A or vector; lysis in 50 mM HEPES pH 7.5, 150 mM NaCl, 1% Triton X-100; 100,000 x g supernatant; anti-FLAG M2 magnetic beads 2 h at 4°C; blots with anti-FLAG and anti-Myc.

Assay [2] addresses T2, 2XFlag-ZMPSTE24-E336A (catalytically dead) (human) (UniProt O75844).
T2 sequence: T1 sequence with E336A
Described as above.

Consider Myc-hIFITM3 (from UniProt Q01628 1-133), for which the binding result in assay [1] and in assay [2] was “binds” each time.

The record behind these values is publication PMC9601121.
